These are yes or no findings as the source states them, for the method shown. Binding seen in cells or lysates may run through a third protein. Some results given as binding are weak or reduced against the parent protein; the word gives no strength. For part of these data: Where a sequence is shown, tags or fusion partners need not be part of it.

The chains behind the UniProt entries cited, without tags or fusion partners.
UniProt P04050, whole entry: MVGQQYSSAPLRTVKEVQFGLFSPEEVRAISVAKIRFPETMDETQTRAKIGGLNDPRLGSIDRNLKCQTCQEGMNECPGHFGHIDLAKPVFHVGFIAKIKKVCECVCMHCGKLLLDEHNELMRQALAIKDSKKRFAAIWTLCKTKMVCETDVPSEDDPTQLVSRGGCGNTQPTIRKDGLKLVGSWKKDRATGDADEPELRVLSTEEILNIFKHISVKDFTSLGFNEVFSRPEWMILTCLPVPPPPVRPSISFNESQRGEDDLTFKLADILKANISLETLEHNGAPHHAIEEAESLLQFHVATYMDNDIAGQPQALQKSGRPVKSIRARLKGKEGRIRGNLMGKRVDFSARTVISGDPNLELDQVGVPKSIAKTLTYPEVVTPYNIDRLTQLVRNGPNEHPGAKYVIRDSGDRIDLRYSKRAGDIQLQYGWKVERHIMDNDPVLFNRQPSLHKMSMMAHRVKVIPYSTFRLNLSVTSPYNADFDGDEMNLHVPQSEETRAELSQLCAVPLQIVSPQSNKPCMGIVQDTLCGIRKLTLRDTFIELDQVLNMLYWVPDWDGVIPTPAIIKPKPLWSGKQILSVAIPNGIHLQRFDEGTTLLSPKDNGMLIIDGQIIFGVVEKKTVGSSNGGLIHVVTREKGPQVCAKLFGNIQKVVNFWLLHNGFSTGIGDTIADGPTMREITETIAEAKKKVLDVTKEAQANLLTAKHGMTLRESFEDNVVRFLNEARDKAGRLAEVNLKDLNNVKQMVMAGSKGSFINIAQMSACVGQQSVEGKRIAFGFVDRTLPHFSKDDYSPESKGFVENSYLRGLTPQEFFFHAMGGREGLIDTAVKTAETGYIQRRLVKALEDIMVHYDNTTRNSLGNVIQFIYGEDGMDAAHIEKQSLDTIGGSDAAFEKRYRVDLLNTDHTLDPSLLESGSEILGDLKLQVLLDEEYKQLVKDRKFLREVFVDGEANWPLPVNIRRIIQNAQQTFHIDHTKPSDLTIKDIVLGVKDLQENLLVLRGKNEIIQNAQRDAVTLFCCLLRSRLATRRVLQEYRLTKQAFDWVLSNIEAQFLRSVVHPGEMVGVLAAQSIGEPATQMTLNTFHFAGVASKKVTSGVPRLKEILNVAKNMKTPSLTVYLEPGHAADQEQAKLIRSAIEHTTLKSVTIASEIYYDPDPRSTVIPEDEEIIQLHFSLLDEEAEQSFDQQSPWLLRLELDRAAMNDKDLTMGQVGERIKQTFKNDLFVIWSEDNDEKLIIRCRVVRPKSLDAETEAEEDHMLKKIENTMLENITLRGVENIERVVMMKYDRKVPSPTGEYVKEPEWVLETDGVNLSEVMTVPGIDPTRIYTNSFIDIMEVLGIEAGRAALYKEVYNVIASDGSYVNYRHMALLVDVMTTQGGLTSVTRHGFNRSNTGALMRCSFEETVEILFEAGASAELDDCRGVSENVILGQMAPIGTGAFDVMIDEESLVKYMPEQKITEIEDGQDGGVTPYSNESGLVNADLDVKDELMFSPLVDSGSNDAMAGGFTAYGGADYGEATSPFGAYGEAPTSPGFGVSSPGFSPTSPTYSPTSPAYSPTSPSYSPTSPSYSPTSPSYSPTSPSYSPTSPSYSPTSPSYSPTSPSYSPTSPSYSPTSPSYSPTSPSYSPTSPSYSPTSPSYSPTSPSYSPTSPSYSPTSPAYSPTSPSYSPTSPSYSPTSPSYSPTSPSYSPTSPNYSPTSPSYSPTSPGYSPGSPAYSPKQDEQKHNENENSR

Common to all, as to assay: co-IP
The target of one assay is T1, Syf1-TAP (S. cerevisiae) (UniProt Q04048).
T1 sequence: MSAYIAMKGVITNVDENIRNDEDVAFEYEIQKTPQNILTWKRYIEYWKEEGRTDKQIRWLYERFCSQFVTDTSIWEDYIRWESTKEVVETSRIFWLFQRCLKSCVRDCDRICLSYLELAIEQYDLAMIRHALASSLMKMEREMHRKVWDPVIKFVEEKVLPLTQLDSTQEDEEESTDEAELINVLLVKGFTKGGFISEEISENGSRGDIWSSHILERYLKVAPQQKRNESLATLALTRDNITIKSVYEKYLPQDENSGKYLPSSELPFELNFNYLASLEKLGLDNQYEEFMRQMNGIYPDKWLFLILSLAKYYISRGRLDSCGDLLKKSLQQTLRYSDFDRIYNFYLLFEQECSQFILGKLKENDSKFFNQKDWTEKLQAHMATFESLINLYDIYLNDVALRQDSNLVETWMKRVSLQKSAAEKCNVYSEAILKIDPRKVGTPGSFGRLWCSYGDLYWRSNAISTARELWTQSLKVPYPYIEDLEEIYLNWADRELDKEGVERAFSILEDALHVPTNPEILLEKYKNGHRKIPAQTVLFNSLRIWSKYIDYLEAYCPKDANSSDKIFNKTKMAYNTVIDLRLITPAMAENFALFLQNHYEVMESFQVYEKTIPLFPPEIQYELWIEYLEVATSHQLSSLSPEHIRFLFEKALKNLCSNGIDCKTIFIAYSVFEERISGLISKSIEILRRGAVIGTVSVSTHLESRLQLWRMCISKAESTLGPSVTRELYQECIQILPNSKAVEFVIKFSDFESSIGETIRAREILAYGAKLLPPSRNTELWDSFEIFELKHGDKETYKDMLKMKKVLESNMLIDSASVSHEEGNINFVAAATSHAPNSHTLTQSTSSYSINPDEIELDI

The target of assay [1] is T2, Hpr1-TAP (C-terminal TAP tag) (S. cerevisiae) (UniProt P17629).
T2 sequence: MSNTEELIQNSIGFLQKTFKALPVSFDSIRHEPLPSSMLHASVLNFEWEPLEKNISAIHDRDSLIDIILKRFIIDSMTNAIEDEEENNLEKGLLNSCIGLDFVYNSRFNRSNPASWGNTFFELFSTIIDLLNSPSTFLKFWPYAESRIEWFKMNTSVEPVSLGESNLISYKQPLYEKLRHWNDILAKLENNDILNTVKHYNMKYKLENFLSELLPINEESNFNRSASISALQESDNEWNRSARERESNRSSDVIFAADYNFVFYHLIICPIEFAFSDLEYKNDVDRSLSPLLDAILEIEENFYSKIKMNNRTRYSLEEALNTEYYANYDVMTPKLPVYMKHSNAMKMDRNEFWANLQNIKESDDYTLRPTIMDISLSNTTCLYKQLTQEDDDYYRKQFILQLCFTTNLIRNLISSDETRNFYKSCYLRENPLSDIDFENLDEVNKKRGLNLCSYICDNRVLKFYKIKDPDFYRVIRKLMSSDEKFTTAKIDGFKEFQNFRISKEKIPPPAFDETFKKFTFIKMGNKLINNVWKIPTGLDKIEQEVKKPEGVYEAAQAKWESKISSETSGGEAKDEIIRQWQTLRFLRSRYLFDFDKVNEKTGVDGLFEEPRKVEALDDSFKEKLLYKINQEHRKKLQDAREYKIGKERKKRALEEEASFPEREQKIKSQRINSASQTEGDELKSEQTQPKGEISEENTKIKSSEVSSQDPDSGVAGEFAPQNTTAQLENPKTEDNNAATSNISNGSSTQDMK

The target in assay [2] is T3, N-terminally TAP-tagged Hpr1 (S. cerevisiae) (UniProt P17629).
T3 sequence: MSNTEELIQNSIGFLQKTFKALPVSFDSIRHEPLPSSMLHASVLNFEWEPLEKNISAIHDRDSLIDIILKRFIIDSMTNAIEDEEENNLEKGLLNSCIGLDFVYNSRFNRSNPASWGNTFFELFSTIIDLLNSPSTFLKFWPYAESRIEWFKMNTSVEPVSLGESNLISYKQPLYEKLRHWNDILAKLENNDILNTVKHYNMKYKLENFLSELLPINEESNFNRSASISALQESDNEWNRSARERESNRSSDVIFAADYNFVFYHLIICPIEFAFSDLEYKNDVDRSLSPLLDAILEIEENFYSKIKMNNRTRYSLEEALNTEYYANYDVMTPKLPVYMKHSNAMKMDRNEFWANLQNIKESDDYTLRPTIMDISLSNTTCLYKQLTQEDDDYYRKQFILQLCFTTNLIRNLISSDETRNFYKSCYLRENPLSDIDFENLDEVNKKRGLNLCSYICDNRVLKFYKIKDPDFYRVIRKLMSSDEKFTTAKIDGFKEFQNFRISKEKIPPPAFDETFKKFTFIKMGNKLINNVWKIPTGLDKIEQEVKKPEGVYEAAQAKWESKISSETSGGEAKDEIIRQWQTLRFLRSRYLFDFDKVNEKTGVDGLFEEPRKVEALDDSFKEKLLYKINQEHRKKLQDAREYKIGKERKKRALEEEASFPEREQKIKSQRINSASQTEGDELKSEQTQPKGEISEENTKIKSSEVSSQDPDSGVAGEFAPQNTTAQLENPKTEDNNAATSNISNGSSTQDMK

As for “Rpb1, the largest subunit of RNA polymerase II (from UniProt P04050 1-1733)”, the binding result with Syf1-TAP (S. cerevisiae) is listed as “binds”.

B1: HA-tagged Syf1 (protein, UniProt Q04048 1-859)
chain: MSAYIAMKGVITNVDENIRNDEDVAFEYEIQKTPQNILTWKRYIEYWKEEGRTDKQIRWLYERFCSQFVTDTSIWEDYIRWESTKEVVETSRIFWLFQRCLKSCVRDCDRICLSYLELAIEQYDLAMIRHALASSLMKMEREMHRKVWDPVIKFVEEKVLPLTQLDSTQEDEEESTDEAELINVLLVKGFTKGGFISEEISENGSRGDIWSSHILERYLKVAPQQKRNESLATLALTRDNITIKSVYEKYLPQDENSGKYLPSSELPFELNFNYLASLEKLGLDNQYEEFMRQMNGIYPDKWLFLILSLAKYYISRGRLDSCGDLLKKSLQQTLRYSDFDRIYNFYLLFEQECSQFILGKLKENDSKFFNQKDWTEKLQAHMATFESLINLYDIYLNDVALRQDSNLVETWMKRVSLQKSAAEKCNVYSEAILKIDPRKVGTPGSFGRLWCSYGDLYWRSNAISTARELWTQSLKVPYPYIEDLEEIYLNWADRELDKEGVERAFSILEDALHVPTNPEILLEKYKNGHRKIPAQTVLFNSLRIWSKYIDYLEAYCPKDANSSDKIFNKTKMAYNTVIDLRLITPAMAENFALFLQNHYEVMESFQVYEKTIPLFPPEIQYELWIEYLEVATSHQLSSLSPEHIRFLFEKALKNLCSNGIDCKTIFIAYSVFEERISGLISKSIEILRRGAVIGTVSVSTHLESRLQLWRMCISKAESTLGPSVTRELYQECIQILPNSKAVEFVIKFSDFESSIGETIRAREILAYGAKLLPPSRNTELWDSFEIFELKHGDKETYKDMLKMKKVLESNMLIDSASVSHEEGNINFVAAATSHAPNSHTLTQSTSSYSINPDEIELDI
Take B1: the binding entry in assay [1] and in assay [2] was “binds” in each case.

The values are drawn from doi:10.1101/2023.08.03.551875.
